{
  "source": "the supplement of paper PMC8728848",
  "binders": {"B1": {"name": "PX14379D-pdi-530-26-530 (Parabacteroides distasonis) (protein)", "chain": "DETVYDKLPADDFGQSTAELNALIGNSHNTMKKFWTEYMHLSECSGSMAVTPTRRGGDWYDGGQYREIYMHTWTSQTSRVKSAWKAATEAIGTCNEAIRKLQNSEILTEEEKAQDVADLRGVRAFWIYVMMDYWGNIPLLTEFHPTDKVFPGNSSRQEVFDWLIQEVEEIKDICPPATTENYGSFTQGAAYSLLAKLYLNAEAWGVTFSGNAYQKVIDNCDKVMAMGYILEPNWKDNFSVTNENSKEAILAATFSSSDTGNDGNVKNELHNNTLHYKDYLSLGITASGTWNGICAQPEYVRLFDEEDARLDGTFLTGLMIDKSTGKPIMTDHNNELNHTIDVNMIPGMEYDGTNWSAVEQHDGARCFKWEFASDLTSSMGNDFHIFRLADIYLMKAEALLRGGGSVSEATALVNTIRERGYGNSDHNYATVTLKEVQLERRLELAWEVYSRQDDIRFGCFTTGMWPQSNCERKADDYLKLLPVSQDAWQVNPNLKQNPGYAAFSK"}},
  "assay_in_all_cases": "glycan array binding signal (z-score within array); higher = stronger binding",
  "conditions_in_all_cases": "glycan notation: IUPAC condensed, linker removed",
  "key": {"[1]": {"target": "Fuc(a1-2)Gal(b1-4)GlcNAc(b1-3)Gal(b1-4)GlcNAc(b1-3)Gal(b1-4)GlcNAc", "procedure,_shortened": "(§1)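 Glycan array data were curated from 3228 arrays in the Consortium for Functional Glycomics database and kept only where the protein sequence was available. Glycan names were converted to IUPAC-condensed notation, and columns mapping to the same glycan were averaged. The binding signal is a within-array Z-score, averaged across arrays of the same protein sequence at different concentrations or buffers and across linkers. Negative Z-scores can be read as non-binding.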"}, "[2]": {"target": "Fuc(a1-2)Gal(b1-4)GlcNAc(b1-3)GalNAc", "procedure,_shortened": "as §1"}, "[3]": {"target": "Fuc(a1-2)Gal(b1-4)GlcNAc(b1-3)[Fuc(a1-2)Gal(b1-4)GlcNAc(b1-6)]GalNAc", "procedure,_shortened": "as §1"}, "[4]": {"target": "Fuc(a1-2)Gal(b1-4)GlcNAc(b1-3)[Fuc(a1-3)[Gal(b1-4)]GlcNAc(b1-6)]Gal(b1-4)Glc", "procedure,_shortened": "as §1"}, "[5]": {"target": "Fuc(a1-2)Gal(b1-4)GlcNAc(b1-6)GalNAc", "procedure,_shortened": "as §1"}, "[6]": {"target": "Fuc(a1-2)Gal(b1-4)GlcNAc6S", "procedure,_shortened": "as §1"}, "[7]": {"target": "Fuc(a1-2)Gal(b1-4)[Fuc(a1-3)]GlcNAc", "procedure,_shortened": "as §1"}, "[8]": {"target": "Fuc(a1-2)Gal(b1-4)[Fuc(a1-3)]GlcNAc(b1-2)Man(a1-3)[Fuc(a1-2)Gal(b1-4)[Fuc(a1-3)]GlcNAc(b1-2)Man(a1-6)]Man(b1-4)GlcNAc(b1-4)[Fuc(a1-6)]GlcNAc", "procedure,_shortened": "as §1"}, "[9]": {"target": "Fuc(a1-2)Gal(b1-4)[Fuc(a1-3)]GlcNAc(b1-2)[Fuc(a1-2)Gal(b1-4)[Fuc(a1-3)]GlcNAc(b1-4)]Man(a1-3)[Fuc(a1-2)Gal(b1-4)[Fuc(a1-3)]GlcNAc(b1-2)Man(a1-6)]Man(b1-4)GlcNAc(b1-4)GlcNAc", "procedure,_shortened": "as §1"}, "[10]": {"target": "Fuc(a1-2)Gal(b1-4)[Fuc(a1-3)]GlcNAc(b1-3)Gal(b1-4)[Fuc(a1-3)]GlcNAc", "procedure,_shortened": "as §1"}, "[11]": {"target": "Fuc(a1-2)Gal(b1-4)[Fuc(a1-3)]GlcNAc(b1-3)Gal(b1-4)[Fuc(a1-3)]GlcNAc(b1-3)Gal(b1-4)[Fuc(a1-3)]GlcNAc", "procedure,_shortened": "as §1"}, "[12]": {"target": "Fuc(a1-2)Gal(b1-4)[Fuc(a1-3)]GlcNAc(b1-3)GalNAc", "procedure,_shortened": "as §1"}, "[13]": {"target": "Fuc(a1-2)Gal(b1-4)[Fuc(a1-3)]GlcNAc(b1-3)[Neu5Ac(a2-6)Gal(b1-4)GlcNAc(b1-6)]Gal(b1-4)Glc", "procedure,_shortened": "as §1"}, "[14]": {"target": "Fuc(a1-2)Gal3S(b1-4)GlcNAc", "procedure,_shortened": "as §1"}, "[15]": {"target": "Fuc(a1-2)Gal6S(b1-3)GlcNAc", "procedure,_shortened": "as §1"}, "[16]": {"target": "Fuc(a1-2)Gal6S(b1-3)GlcNAc6S", "procedure,_shortened": "as §1"}, "Fuc(a1-2)Gal6S(b1-4)Glc": {"target": "Fuc(a1-2)Gal6S(b1-4)Glc", "procedure,_shortened": "as §1"}, "[17]": {"target": "Fuc(a1-2)Gal6S(b1-4)Glc6S", "procedure,_shortened": "as §1"}, "Fuc(a1-2)[Gal(a1-3)]Gal": {"target": "Fuc(a1-2)[Gal(a1-3)]Gal", "procedure,_shortened": "as §1"}, "[18]": {"target": "Fuc(a1-2)[Gal(a1-3)]Gal(b1-3)GalNAc", "procedure,_shortened": "as §1"}, "[19]": {"target": "Fuc(a1-2)[Gal(a1-3)]Gal(b1-3)GalNAc(b1-3)Gal(a1-4)Gal(b1-4)Glc", "procedure,_shortened": "as §1"}, "[20]": {"target": "Fuc(a1-2)[Gal(a1-3)]Gal(b1-3)GlcNAc", "procedure,_shortened": "as §1"}, "[21]": {"target": "Fuc(a1-2)[Gal(a1-3)]Gal(b1-3)GlcNAc(b1-2)Man(a1-3)[Fuc(a1-2)[Gal(a1-3)]Gal(b1-3)GlcNAc(b1-2)Man(a1-6)]Man(b1-4)GlcNAc(b1-4)GlcNAc", "procedure,_shortened": "as §1"}, "[22]": {"target": "Fuc(a1-2)[Gal(a1-3)]Gal(b1-3)GlcNAc(b1-2)Man(a1-3)[Fuc(a1-2)[Gal(a1-3)]Gal(b1-3)GlcNAc(b1-2)Man(a1-6)]Man(b1-4)GlcNAc(b1-4)[Fuc(a1-6)]GlcNAc", "procedure,_shortened": "as §1"}, "[23]": {"target": "Fuc(a1-2)[Gal(a1-3)]Gal(b1-3)GlcNAc(b1-3)GalNAc", "procedure,_shortened": "as §1"}, "[24]": {"target": "Fuc(a1-2)[Gal(a1-3)]Gal(b1-3)GlcNAc(b1-6)GalNAc", "procedure,_shortened": "as §1"}, "[25]": {"target": "Fuc(a1-2)[Gal(a1-3)]Gal(b1-4)Glc", "procedure,_shortened": "as §1"}, "[26]": {"target": "Fuc(a1-2)[Gal(a1-3)]Gal(b1-4)GlcNAc", "procedure,_shortened": "as §1"}, "[27]": {"target": "Fuc(a1-2)[Gal(a1-3)]Gal(b1-4)GlcNAc(b1-2)Man", "procedure,_shortened": "as §1"}, "[28]": {"target": "Fuc(a1-2)[Gal(a1-3)]Gal(b1-4)GlcNAc(b1-2)Man(a1-3)[Fuc(a1-2)[Gal(a1-3)]Gal(b1-4)GlcNAc(b1-2)Man(a1-6)]Man(b1-4)GlcNAc(b1-4)GlcNAc", "procedure,_shortened": "as §1"}},
  "note": "Some of the results follow.",
  "data": [
    {"binder": "B1", "values": [
      {"measurement": "glycan array binding signal (z-score)", "setting": "[1]", "value": -0.338},
      {"measurement": "glycan array binding signal (z-score)", "setting": "[2]", "value": 0.572},
      {"measurement": "glycan array binding signal (z-score)", "setting": "[3]", "value": -0.167},
      {"measurement": "glycan array binding signal (z-score)", "setting": "[4]", "value": -0.465},
      {"measurement": "glycan array binding signal (z-score)", "setting": "[5]", "value": -0.147},
      {"measurement": "glycan array binding signal (z-score)", "setting": "[6]", "value": -1.22},
      {"measurement": "glycan array binding signal (z-score)", "setting": "[7]", "value": -0.508},
      {"measurement": "glycan array binding signal (z-score)", "setting": "[8]", "value": 0.465},
      {"measurement": "glycan array binding signal (z-score)", "setting": "[9]", "value": -0.436},
      {"measurement": "glycan array binding signal (z-score)", "setting": "[10]", "value": -1.04},
      {"measurement": "glycan array binding signal (z-score)", "setting": "[11]", "value": 2.52},
      {"measurement": "glycan array binding signal (z-score)", "setting": "[12]", "value": -0.394},
      {"measurement": "glycan array binding signal (z-score)", "setting": "[13]", "value": -0.349},
      {"measurement": "glycan array binding signal (z-score)", "setting": "[14]", "value": -0.128},
      {"measurement": "glycan array binding signal (z-score)", "setting": "[15]", "value": 0.394},
      {"measurement": "glycan array binding signal (z-score)", "setting": "[16]", "value": 2.88},
      {"measurement": "glycan array binding signal (z-score)", "setting": "Fuc(a1-2)Gal6S(b1-4)Glc", "value": 1.22},
      {"measurement": "glycan array binding signal (z-score)", "setting": "[17]", "value": -0.709},
      {"measurement": "glycan array binding signal (z-score)", "setting": "Fuc(a1-2)[Gal(a1-3)]Gal", "value": 0.08},
      {"measurement": "glycan array binding signal (z-score)", "setting": "[18]", "value": 0.313},
      {"measurement": "glycan array binding signal (z-score)", "setting": "[19]", "value": -0.361},
      {"measurement": "glycan array binding signal (z-score)", "setting": "[20]", "value": -0.505},
      {"measurement": "glycan array binding signal (z-score)", "setting": "[21]", "value": 0.313},
      {"measurement": "glycan array binding signal (z-score)", "setting": "[22]", "value": -0.155},
      {"measurement": "glycan array binding signal (z-score)", "setting": "[23]", "value": 0.049},
      {"measurement": "glycan array binding signal (z-score)", "setting": "[24]", "value": -0.421},
      {"measurement": "glycan array binding signal (z-score)", "setting": "[25]", "value": 0.621},
      {"measurement": "glycan array binding signal (z-score)", "setting": "[26]", "value": -0.423},
      {"measurement": "glycan array binding signal (z-score)", "setting": "[27]", "value": 1.09},
      {"measurement": "glycan array binding signal (z-score)", "setting": "[28]", "value": 0.385}
    ]}
  ]
}
